For the assay, the target named is T1, trancytosis-associated protein (TAP)/p115 from cytosol of differentiated 3T3-L1 adipocytes (UniProt Q9Z1Z0).
T1 sequence (looked up): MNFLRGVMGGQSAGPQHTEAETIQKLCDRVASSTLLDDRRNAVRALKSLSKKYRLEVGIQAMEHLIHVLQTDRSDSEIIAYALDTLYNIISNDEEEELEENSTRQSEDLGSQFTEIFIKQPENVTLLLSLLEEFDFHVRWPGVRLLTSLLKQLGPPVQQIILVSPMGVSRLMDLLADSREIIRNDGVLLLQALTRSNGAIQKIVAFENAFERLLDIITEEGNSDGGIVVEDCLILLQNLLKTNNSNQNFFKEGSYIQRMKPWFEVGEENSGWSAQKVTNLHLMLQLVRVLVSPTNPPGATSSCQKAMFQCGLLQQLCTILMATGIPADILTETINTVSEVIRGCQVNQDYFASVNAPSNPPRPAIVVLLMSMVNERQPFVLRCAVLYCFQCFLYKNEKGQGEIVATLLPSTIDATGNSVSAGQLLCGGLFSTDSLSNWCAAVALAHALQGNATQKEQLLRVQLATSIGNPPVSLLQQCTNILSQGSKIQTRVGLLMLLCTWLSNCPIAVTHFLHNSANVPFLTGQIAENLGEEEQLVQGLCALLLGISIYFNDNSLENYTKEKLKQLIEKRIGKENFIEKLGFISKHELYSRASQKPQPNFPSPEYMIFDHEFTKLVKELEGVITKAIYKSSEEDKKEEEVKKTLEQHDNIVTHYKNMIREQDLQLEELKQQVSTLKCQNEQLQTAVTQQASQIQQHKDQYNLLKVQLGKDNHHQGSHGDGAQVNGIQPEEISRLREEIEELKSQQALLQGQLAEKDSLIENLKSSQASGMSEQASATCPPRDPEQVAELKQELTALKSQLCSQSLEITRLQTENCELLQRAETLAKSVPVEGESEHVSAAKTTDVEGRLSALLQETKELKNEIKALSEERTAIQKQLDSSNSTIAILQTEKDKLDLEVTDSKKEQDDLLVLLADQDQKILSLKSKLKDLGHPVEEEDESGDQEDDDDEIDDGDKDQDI
As to the kind of experiment: competitive elution from the IRAP-CBD chitin bead column loaded with 3T3-L1 adipocyte cytosol.

No constants are given. Whether binding was seen depends on the method and setting. Some entries that bind do so weakly or less than the wild type. Tags and fused reporters may be left off the sequences shown.

B1: NT-IRAP peptide (soluble N-terminus of IRAP, amino acids 1-109, cleaved from the intein-CBD fusion) (peptide)
peptide: METFTNDRLQLPRNMIENSMFEEEPDVVDLAKEPCLHPLEPDEVEYEPRGSRLLVRGLGEHEMDEDEEDYESSAKLLGMSFMNRSSGLRNSATGYRQSPDGTCSVPSAR
As for B1, the binding result is listed as “binds”.
